Test results reported in patent US20180078656A1 (priority 2015, published 2018).

Assay: general procedure: Fmoc solid-phase peptide synthesis; Barlos resin; TBTU/HOBt·H2O/DIPEA
Settings: for isolated mass / isolated yield: whole synthesis; for isolated yield: scale of the general procedure 1.0 g resin; for conjugation yield: conjugation step

| Substance | isolated mass | isolated yield | conjugation yield |
| --- | --- | --- | --- |
| Azide-TEG-Val-Cit-Gly-Pro-OH | 0.05 g | 70% |  |
| Azide-TEG-Val-Cit-Gly-Pro-Cryptophycin-55-glycinate |  |  | 75% |
| Maleimide-PEG-Val-Cit-Pro-Gly | 0.61 g | 70% |  |
| Maleimide-PEG-Val-Cit-Pro-Gly-Cryptophycin-55-glycinate |  |  | 60% |
